Assay results as given in US20100197602A1, “USE OF FOLLICULAR GONADOTROPIN RELEASING PEPTIDE AS A THERAPEUTIC AGENT IN THE TREATMENT OF STREPTOCOCCUS PNEUMONIAE INFECTION” (priority 2007, published 2010).
At least one peptide structure holds a part that was inferred or is arguable (an end, a ring closure or a residue). Residues, ends and D or L forms follow the SMILES beside them.

Experiments:
[1] = tested on: Human Peripheral Blood Mononuclear Cells (PBMC); test: T cell proliferation assay (PHA, 3H-thymidine); type: cell-based; details: peptide 10 micrograms per ml
[2] = tested on: spleen cells of Ovalbumin-immunized Balb/c mice; test: Th1/Th2 cytokine profiling assay; type: cell-based, mouse; details: peptide 10 micrograms per ml; Ovalbumin restimulation; 72 hours
HUVEC = test: Endothelial tube formation assay; type: cell-based, human; details: peptide 10 micrograms per ml, 20 hours
[3] = tested on: Primary Human endothelial cells (HUVEC); test: Endothelial cell migration assay; type: cell-based; details: peptide 10 micrograms per ml, 22 hours
[4] = tested on: Human Peripheral Blood Mononuclear Cells (PBMC); test: B cell proliferation assay (SAC plus Interleukin-2, 3H-thymidine); type: cell-based; details: peptide 10 micrograms per ml
Human A549 cells [5] = test: Apoptosis prevention assay (C2 ceramide, Annexin-5); type: cell-based; details: 30 min pretreatment, peptide 10 micrograms per ml
RAW 264.7 cells = test: Phagocytosis assay (Fluorescein-labeled Escherichia coli); type: cell-based, mouse; details: peptide 10 micrograms per ml, flow cytometry
Human A549 cells [6] = test: Apoptosis induction assay (Annexin-5); type: cell-based; details: peptide 10 micrograms per ml, 24 hours
[7] = tested on: TNF alpha production in macrophages from human PBMC; test: TNF alpha production assay (LPS-stimulated macrophages, ELISA); type: cell-based; details: peptide 10 micrograms per ml, lipopolysaccharide 200 ng/ml, overnight
Human A549 cells [8] = test: Propidium iodide cell cycle assay; type: cell-based; details: 10 micrograms per ml, 24 hours, Propidium iodide FACS

## C[C@@H](O)[C@H](N)C(=O)N[C@@H](CC(=O)O)C(=O)N[C@H](C(=O)N[C@@H](CO)C(=O)N[C@@H](Cc1c[nH]cn1)C(=O)N[C@@H](Cc1c[nH]cn1)C(=O)N[C@@H](CC(=O)O)C(=O)N[C@@H](CCC(N)=O)C(=O)N[C@@H](CC(=O)O)C(=O)N[C@@H](Cc1c[nH]cn1)C(=O)N1CCC[C@H]1C(=O)N[C@H](C(=O)N[C@@H](Cc1ccccc1)C(=O)N[C@@H](CC(N)=O)C(=O)O)[C@@H](C)O)[C@@H](C)O [FGRP, Thr-Asp-Thr-Ser-His-His-Asp-Gln-Asp-His-Pro-Thr-Phe-Asn-OH] (H-TDTSHHDQDHPTFN-OH)
[1]
  % of PHA induced control: 92.3%
[2]
  IFNγ spleen cells; TH1 response (% of control): 123.4 % of control
  IL-2 spleen cells (% of control): 119.7 % of control
  IL-4 spleen cells; TH2 response (% of control): 129.0 % of control
  IL-5 spleen cells; TH2 response (% of control): 83.3 % of control
  TNF-a spleen cells; TH1 response (% of control): 134.0 % of control
HUVEC
  % inhibition of tube formation: −11%
[3]
  % inhibition of migration: 8%
[4]
  % of SAC/IL2 induced control: 110.8%
Human A549 cells [5]
  % prevention of ceramide induced apoptosis: 0.0%
RAW 264.7 cells
  % of control phagocytosis: 102.9%
Human A549 cells [6]
  % of induction: 6.2%
[7]
  % of LPS induction: 99.5%
Human A549 cells [8]
  Cell cycle analysis G0/G1: 60.7
  Cell cycle analysis G2/M: 9.8
  Cell cycle analysis S: 29.6
